Assay results published in the supplement of paper PMC7752906.
Counter-ions that a name gives are not always drawn. The list shows a part of the results. Repeats in this data set agree poorly, so a single value says little.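 About 40 Schistosoma mansoni schistosomula per well were imaged over time in bright field and compared with 0.1% DMSO wells. A drug counts as a hit if its Mahalanobis distance reaches 2.47 or more, three standard deviations above the DMSO control mean. Degeneracy is the fraction of worms scored opaque.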 Numbered stars: 1 amine (or outer) side, 2 acyl side, 3 side chain; on linkers, the order of the positions; unused ones are H or OH. Bridge positions count the residues as written; N and C are the ends. Square brackets hold non-standard residues; d marks the D form. Peptide text beside a SMILES is read from it. * marks the point of attachment. ξ: configuration not given here. X2 = N=C1NCCC([C@H](N[*:1])C(=O)[*:2])N1; ΔAla(Z-3-ureido) = NC(=O)N/C=C(\N)C(=O)O; ξβ3hOrn = NCCCC(N)CC(=O)*; Dap = NC[C@H](N)C(=O)O

test system: Schistosoma mansoni schistosomula; test: Mahalanobis distance of static-rate-frequency phenotype descriptors from DMSO controls (dimensionless); higher = stronger phenotypic change versus DMSO; details: 10 µM; 72 h

SMILES	Mahalanobis distance
COC(=O)Nc1nc2cc(C(=O)c3ccccc3)ccc2[nH]1 [Mebendazole]	inactive: 1.87
Cc1cc2c(cc1S(N)(=O)=O)S(=O)(=O)CCC2 [Meticrane]	inactive: 1.22
Cc1c(C)c2c(c(C)c1O)CCC(C)(COc1ccc(CC3SC(=O)NC3=O)cc1)O2 (stereo not drawn) [Troglitazone]	inactive: 1.28
CC(C(=O)O)c1ccc2c(c1)Cc1cccnc1O2 (stereo not drawn) [Pranoprofen]	inactive: 2.08
CN(C)CCCN1c2ccccc2Sc2ccccc21 [Promazine]	active: 2.52
CC(C)(C(=O)O)c1ccc(C(O)CCCN2CCC(C(O)(c3ccccc3)c3ccccc3)CC2)cc1 (stereo not drawn) [Fexofenadine]	inactive: 2.13
CN(N=O)C(=O)N[C@H]1C(O)O[C@H](CO)[C@@H](O)[C@@H]1O (mixture of isomers) [Streptozosin]	inactive: 1.74
Cc1onc(-c2ccccc2)c1-c1ccc(S(N)(=O)=O)cc1 [Valdecoxib]	inactive: 2.15
C[C@]12CCC(=O)C=C1CC[C@@H]1[C@@H]2[C@@H](O)C[C@@]2(C)[C@H]1CC[C@]2(O)C(=O)CO [Hydrocortisone]	inactive: 1.78
CCOC(=O)C1=C[C@@H](OC(CC)CC)[C@H](NC(C)=O)[C@@H](N)C1 [Oseltamivir]	inactive: 1.74
Oc1ncnc2[nH]ncc12 [Allopurinol]	inactive: 2.46
CC1(C)S[C@@H]2[C@H](NC(=O)[C@H](N)c3ccc(O)cc3)C(=O)N2[C@H]1C(=O)O [Amoxicillin]	inactive: 2.3
CCC(=O)O[C@@H](O[P@](=O)(CCCCc1ccccc1)CC(=O)N1C[C@H](C2CCCCC2)C[C@H]1C(=O)O)C(C)C [Fosinopril]	inactive: 2.32
COc1cccc2c1C(=O)c1c(O)c3c(c(O)c1C2=O)C[C@@](O)(C(=O)CO)C[C@@H]3O[C@H]1C[C@H](N)[C@H](O)[C@H](C)O1 [Doxorubicin]	inactive: 2.2
OCCOCCN1CCN(C2=Nc3ccccc3Sc3ccccc32)CC1 [Quetiapine]	inactive: 1.76
Cc1ccc2c(Br)cc(Br)c(OC(=O)c3ccccc3)c2n1 [broxaldine]	inactive: 1.75
CN[C@@H]1[C@H](O[C@H]2[C@H](O[C@H]3[C@H](O)[C@@H](O)[C@H](N=C(N)N)[C@@H](O)[C@@H]3N=C(N)N)O[C@@H](C)[C@]2(O)C=O)O[C@@H](CO)[C@H](O)[C@H]1O [Streptomycin Sulfate]	active: 2.55
Nc1nc(Cl)nc2c1ncn2[C@H]1C[C@H](O)[C@@H](CO)O1 [Cladribine]	inactive: 2.08
Cc1ccc(Nc2c(F)cccc2Cl)c(CC(=O)O)c1 [Lumiracoxib]	inactive: 2.17
Fc1ccc(C(c2ccc(F)cc2)N2CCN(C/C=C/c3ccccc3)CC2)cc1 [flunarizine]	active: 3.23
CN1CCc2c(c3ccccc3n2Cc2ccccc2)C1 [Mebhydrolin Naphthalenesulfonate]	active: 3.59

SMILES	Mahalanobis distance
O=C(OC[C@H]1O[C@@H](OC(=O)c2cc(O)c(O)c(OC(=O)c3cc(O)c(O)c(O)c3)c2)[C@H](OC(=O)c2cc(O)c(O)c(OC(=O)c3cc(O)c(O)c(O)c3)c2)[C@@H](OC(=O)c2cc(O)c(O)c(OC(=O)c3cc(O)c(O)c(O)c3)c2)[C@@H]1OC(=O)c1cc(O)c(O)c(OC(=O)c2cc(O)c(O)c(O)c2)c1)c1cc(O)c(O)c(OC(=O)c2cc(O)c(O)c(O)c2)c1 [Tannic Acid]	inactive: 2.3
CC(=O)O[C@@]12CO[C@@H]1C[C@H](O)[C@@]1(C)C(=O)[C@H](O)C3=C(C)[C@@H](OC(=O)[C@H](O)[C@@H](NC(=O)OC(C)(C)C)c4ccccc4)C[C@@](O)([C@@H](OC(=O)c4ccccc4)[C@H]21)C3(C)C [Docetaxel]	active: 2.76
CC1CNc2c(cccc2S(=O)(=O)N[C@@H](CCCNC(=N)N)C(=O)N2CC[C@@H](C)C[C@@H]2C(=O)O)C1 (stereo partly drawn) [Argatroban]	inactive: 1.47
CN(C)CCN(Cc1ccccc1)c1ccccn1 [Tripelennamine]	active: 2.98
CN1C(=O)CC(c2ccccc2)C1=O (stereo not drawn) [Phensuccimide]	inactive: 2.38
Nc1ccn([C@@H]2O[C@H](CO)[C@@H](O)C2(F)F)c(=O)n1 [Gemcitabine]	inactive: 1.78
N=C(N)NC(=O)Cc1c(Cl)cccc1Cl [Guanfacine Hydrochloride]	active: 3.6
O=C(O)CC(O)(CC(=O)O)C(=O)O [Citric Acid]	inactive: 2.2
COc1ccc2[nH]c([S+]([O-])Cc3ncc(C)c(OC)c3C)nc2n1 (stereo not drawn) [Tenatoprazole]	inactive: 2.25
O=C(O)CCCCC(=O)O [Adipic Acid, Hexanedioic Acid]	inactive: 2.22
CN(C)CC/C=C1/c2ccccc2Sc2ccc(Cl)cc21 [Chlorprothixene Hydrochloride]	inactive: 1.91
CCN(CC)C(=O)c1cccc(C)c1 [Deet, Diethyltoluamide]	inactive: 1.98
CCN(CC)C(=O)c1cccnc1 [Nikethamide]	inactive: 1.66
CCCN(CCC)S(=O)(=O)c1ccc(C(=O)O)cc1 [Probenecid]	inactive: 2.31
C[C@]12CC[C@@H]3c4ccc(O)cc4CC[C@H]3[C@@H]1CC[C@@H]2O [Beta-estradiol]	inactive: 1.7
C[C@]12CC[C@@H]3c4ccc(O)cc4CC[C@H]3[C@@H]1CC[C@@H]2O [Estradiol]	inactive: 1.41
COc1cc(C(=O)NCCCCCC(=O)O)cc(OC)c1OC [Capobenic Acid]	inactive: 1.99
CC1=C(C(=O)O)N2C(=O)[C@@H](NC(=O)[C@H](N)C3=CCC=CC3)[C@H]2SC1 [Cephradine]	inactive: 1.21
N[C@@H](CCC(=O)N[C@@H](CS)C(=O)NCC(=O)O)C(=O)O [Glutathione]	inactive: 2.22
Cc1ncc(CO)c(CO)c1O [Pyridoxine]	inactive: 1.4
N=C(N)NS(=O)(=O)c1ccc(N)cc1 [Sulfaguanidine]	inactive: 1.51

Shown in markdown: entries from further up

| SMILES | Mahalanobis distance |
| --- | --- |
| CN1CCc2c(c3ccccc3n2Cc2ccccc2)C1 [Mebhydrolin Naphthalenesulfonate] | active: 3.59 |
| O=C(OC[C@H]1O[C@@H](OC(=O)c2cc(O)c(O)c(OC(=O)c3cc(O)c(O)c(O)c3)c2)[C@H](OC(=O)c2cc(O)c(O)c(OC(=O)c3cc(O)c(O)c(O)c3)c2)[C@@H](OC(=O)c2cc(O)c(O)c(OC(=O)c3cc(O)c(O)c(O)c3)c2)[C@@H]1OC(=O)c1cc(O)c(O)c(OC(=O)c2cc(O)c(O)c(O)c2)c1)c1cc(O)c(O)c(OC(=O)c2cc(O)c(O)c(O)c2)c1 [Tannic Acid] | inactive: 2.3 |
| CC(=O)O[C@@]12CO[C@@H]1C[C@H](O)[C@@]1(C)C(=O)[C@H](O)C3=C(C)[C@@H](OC(=O)[C@H](O)[C@@H](NC(=O)OC(C)(C)C)c4ccccc4)C[C@@](O)([C@@H](OC(=O)c4ccccc4)[C@H]21)C3(C)C [Docetaxel] | active: 2.76 |
| CC1CNc2c(cccc2S(=O)(=O)N[C@@H](CCCNC(=N)N)C(=O)N2CC[C@@H](C)C[C@@H]2C(=O)O)C1 (stereo partly drawn) [Argatroban] | inactive: 1.47 |

(next part)

SMILES	Mahalanobis distance
NC[C@@H]1CC[C@@H](N)[C@@H](O[C@H]2[C@H](O)[C@@H](O[C@H]3O[C@H](CO)[C@@H](O)[C@H](N)[C@H]3O)[C@H](N)C[C@@H]2N)O1 [Dibekacin]	inactive: 1.77
CCCCCCCCCCCCCCCC(=O)OC[C@@H](NC(=O)C(Cl)Cl)[C@H](O)c1ccc([N+](=O)[O-])cc1 [Chloramphenicol Palmitate]	inactive: 2.01
Clc1ccc(Cn2c(CN3CCCC3)nc3ccccc32)cc1 [Clemizole Hydrochloride]	inactive: 2.09
Clc1ccc(CO/N=C(\Cn2ccnc2)c2ccc(Cl)cc2Cl)c(Cl)c1 [Oxiconazole]	active: 2.6
COc1ccc2cc([C@H](C)CO)ccc2c1 [Naproxol]	inactive: 1.35
C#C[C@]1(OC(C)=O)CC[C@H]2[C@@H]3CCC4=CC(=NO)CC[C@@H]4[C@H]3CC[C@@]21CC (mixture of isomers) [Norgestimate]	active: 2.98
CCCCC(CC)CCC(CC(C)C)OS(=O)(=O)O (stereo not drawn) [Sodium Tetradecyl Sulfate]	inactive: 2.42
COc1cc(C(=O)NCc2ccc(OCCN(C)C)cc2)cc(OC)c1OC [Trimethobenzamide Hydrochloride]	inactive: 1.98
CC(=O)[C@@]1(O)CC[C@H]2[C@@H]3C[C@H](C)C4=CC(=O)C=C[C@]4(C)[C@@]3(F)[C@@H](O)C[C@@]21C [Fluorometholone]	inactive: 1.77
CCc1nc(N)nc(N)c1-c1ccc(Cl)cc1 [Pyrimethamine]	inactive: 2.26
C1CCC(C(CC2CCCCN2)C2CCCCC2)CC1 (stereo not drawn) [perhexiline]	active: 2.72
CCOc1nc2cccc(C(=O)OCc3oc(=O)oc3C)c2n1Cc1ccc(-c2ccccc2-c2noc(=O)[nH]2)cc1 [Azilsartan Kamedoxomil]	inactive: 1.61
O=C(O)c1cn(C2CC2)c2cc(N3CCNCC3)c(F)cc2c1=O [Ciprofloxacin]	inactive: 1.57
CCOC(=O)COc1ccc2c(=O)cc(-c3ccccc3)oc2c1 [Efloxate]	inactive: 2.06
O=C(O)C(=O)O.[NH-][C@@H]1CCCC[C@H]1[NH-].[Pt+2] [Oxaliplatin]	inactive: 1.59
C[C@H]1c2cccc(O)c2C(=O)C2=C(O)[C@]3(O)C(=O)C(C(N)=O)=C(O)[C@@H](N(C)C)[C@@H]3[C@@H](O)[C@@H]21 [Doxycycline]	inactive: 1.34
O=C1/C(=C/c2cccs2)CCC/C1=C\c1cccs1 [tenylidone]	active: 2.61
Clc1ccc(C(Cn2ccnc2)OCc2ccsc2Cl)c(Cl)c1 (stereo not drawn) [Tioconazole]	active: 2.48
CC12CCC(CC1=O)C2(C)C [D-camphor]	inactive: 1.79
C[C@@H]1NC(=O)[C@@H](N)CNC(=O)[C@H](C2CCNC(=N)N2)NC(=O)/C(=C/NC(N)=O)NC(=O)[C@H](CNC(=O)CC(N)CCCN)NC1=O.N=C1NCC[C@H]([C@@H]2NC(=O)/C(=C/NC(N)=O)NC(=O)[C@H](CNC(=O)C[C@@H](N)CCCN)NC(=O)[C@H](CO)NC(=O)[C@@H](N)CNC2=O)N1 [Capreomycin Sulfate] (H-[Dap]S[Dap](ξβ3hOrn)[ΔAla(Z-3-ureido)][X2]; lactam 1-C)	inactive: 1.33
CN[C@@H]1[C@@H](O[C@H]2O[C@H](CO)[C@@H](N)[C@H](O)[C@H]2O)OC2C[C@@H](N)[C@@H](O[C@H]3[C@H](O)[C@@H](O)[C@H](N)C[C@@H]3N)OC2[C@@H]1O (stereo partly drawn) [Apramycin Sulfate]	inactive: 1.91
